In publication PMC7819943, “Rice protein-binding microarrays: a tool to detect cis-acting elements near promoter regions in rice”:
This is one part of the list.

By UniProt entry, the sequences of proteins in these tests, tags left out.
UniProt Q0JBA9, entry or part of it: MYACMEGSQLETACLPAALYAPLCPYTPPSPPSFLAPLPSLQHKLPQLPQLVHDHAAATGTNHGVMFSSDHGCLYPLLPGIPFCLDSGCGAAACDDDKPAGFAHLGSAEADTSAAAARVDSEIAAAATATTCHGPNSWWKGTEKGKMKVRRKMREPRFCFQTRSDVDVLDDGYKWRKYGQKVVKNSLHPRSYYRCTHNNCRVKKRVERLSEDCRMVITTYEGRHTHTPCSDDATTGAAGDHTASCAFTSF

What follows are sequences tested against OsWRKY34 (Oryza sativa, UniProt Q0JBA9 1-250) (assay: protein-binding microarray (RPBM); PBS, 2% BSA, 51.3 ng/ul salmon testes DNA, 50 uM zinc acetate, 200 nM TF, 25 C, 1 h; high values mean tight binding). Settings: protein: recombinant; tags: N-terminal polyhistidine and DsRed monomer fusion (pET32a); label: CyDye5-dUTP incorporated in the synthesized complementary strand; 3' TTTTT single-stranded linker to array surface; dsDNA, one strand shown.
Outline: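 An Axon 4000B scanner gave the binding signal as per-feature fluorescence intensity in arbitrary units. This followed washing of a custom Agilent array that had been incubated for 1 h at 25 °C with 200 nM protein in PBS, 2% BSA, salmon testes DNA and 50 µM zinc acetate. The proteins were transcription factors fused at the N-terminus to polyhistidine and DsRed, expressed in E. coli BL21-CodonPlus and purified on Ni–NTA.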

Sequence	binding signal
AGTGCGTGATACTACTGCGTATTTCTTGTTTATTCAGATCCGGAGTCACCTAGTGCAG	9140 fluorescence intensity (a.u.)
ATAATCACACTCAATCTCAGGTTCTTGCTCCACGTACTCCCGGAGTCACCTAGTGCAG	9790 fluorescence intensity (a.u.)
CGCCGCCGCCGCCGCCGTCCAAGATGGACTGCTTCTTGTCCGGAGTCACCTAGTGCAG	8220 fluorescence intensity (a.u.)
TGGCAGCATCTACCATCTCCTTCCAGCTGATACCCAGCACCGGAGTCACCTAGTGCAG	8600 fluorescence intensity (a.u.)
CTGCATATTGTTCATCTGGCGAGCCACGTCGATTGTTACACGGAGTCACCTAGTGCAG	12500 fluorescence intensity (a.u.)
GCCACCACGCCGAGAGCCCATCTTGTAGTCATCTCTCGCTCGGAGTCACCTAGTGCAG	8760 fluorescence intensity (a.u.)
GCAGGAATTTTTTTACCGGTGTTAGGCCCTGTCATCCGAACGGAGTCACCTAGTGCAG	8040 fluorescence intensity (a.u.)
CCATCGGCTGCAGTTTTTCCTCCATACTGTCGTCTGTAGCCGGAGTCACCTAGTGCAG	10000 fluorescence intensity (a.u.)
CCGCTGCCGCTTCCGCTTCCGCTTCTTCCGTTCTGGAGACCGGAGTCACCTAGTGCAG	10400 fluorescence intensity (a.u.)
TTTCTCCACTTTTGTCTTACTGTTGCCCCTATAAAGCTAACGGAGTCACCTAGTGCAG	9760 fluorescence intensity (a.u.)
TATGATTTGATTGATTTCTGGATCAGATTGCGTCCCTTGCCGGAGTCACCTAGTGCAG	8110 fluorescence intensity (a.u.)
CCAGAAGAAGCCGTAGATTTTTTTTCTTCCTATCCGGAATCGGAGTCACCTAGTGCAG	8670 fluorescence intensity (a.u.)
CCTATTCGTTCCGTATTTATGACCGATATTATCCATGTTTCGGAGTCACCTAGTGCAG	10300 fluorescence intensity (a.u.)
CCGACCGTTATATTACTACCCATTGTTACATGTACATTGACGGAGTCACCTAGTGCAG	8520 fluorescence intensity (a.u.)
GTTACACGTGAACGCGGCAGAATTGATTTCCTTGCACCGTCGGAGTCACCTAGTGCAG	9280 fluorescence intensity (a.u.)
TATTTTTCATTTTTTATATGTCTAATCTTCTTTCTTTTTCCGGAGTCACCTAGTGCAG	8260 fluorescence intensity (a.u.)
TTGGATTAGTAATGGCACGGTTCTTTGGGAAGGCTTTTATCGGAGTCACCTAGTGCAG	8340 fluorescence intensity (a.u.)
GTGAGGTGAGGGAGGAGGGGCGGTAAACGCGGGGTGATGGCGGAGTCACCTAGTGCAG	11400 fluorescence intensity (a.u.)
TTCCTCCAAGCTTCTAACCACCGTCTTGCCATTTAGGGTTCGGAGTCACCTAGTGCAG	9510 fluorescence intensity (a.u.)
TGTGGTGTTGAACTTCTTTTTTTTGTTCGAGATGACAGTTCGGAGTCACCTAGTGCAG	8200 fluorescence intensity (a.u.)
CTGGGTGGTTTGTTGCATTGATCATCTTTATAACTTGATACGGAGTCACCTAGTGCAG	9740 fluorescence intensity (a.u.)

Sequence	binding signal
TTAGCCATCCTCTTCAGACACATGCATCAATTTTACAGGTCGGAGTCACCTAGTGCAG	11600 fluorescence intensity (a.u.)
TGTATCTTCATCTCCTGAGCTCCGCGCTATTCTCCGTCCTCGGAGTCACCTAGTGCAG	8500 fluorescence intensity (a.u.)
TTGTGAGCGCCTTTGTTTGCACTATGCTTCTCAAAAAATACGGAGTCACCTAGTGCAG	8900 fluorescence intensity (a.u.)
TCCCATCTCCTCGTCCTCCGTGCCACCGCCGGCGCCTCTTCGGAGTCACCTAGTGCAG	9960 fluorescence intensity (a.u.)
TGCCCGACTTGGCTTTCTCCTCCTCTCTCCTCCCGCAACCCGGAGTCACCTAGTGCAG	8600 fluorescence intensity (a.u.)
TCTTTCATAGGGTGATTTTATTGTGTTTTAGCTTTTTAAACGGAGTCACCTAGTGCAG	9570 fluorescence intensity (a.u.)
ATAACTTGCAGTACCTTGATTTAAGCCACAACAGCTTAACCGGAGTCACCTAGTGCAG	8230 fluorescence intensity (a.u.)
TTAAAAATTATCTTACCCTTGCACGTGCCATTTTTTTTAGCGGAGTCACCTAGTGCAG	10300 fluorescence intensity (a.u.)
AAAGAGTTCCGTGCACGTTGACATACATTTTTCTTGCAATCGGAGTCACCTAGTGCAG	9840 fluorescence intensity (a.u.)
CTATGTCTTTCCTACGGCGCAATCGAACGACAATTCCTATCGGAGTCACCTAGTGCAG	10500 fluorescence intensity (a.u.)
AATCCATCCATCCATCCATGTGTACTTCCAATCCCAATCCCGGAGTCACCTAGTGCAG	10700 fluorescence intensity (a.u.)
TTCGTTCGTTCCGTATGTGGTCATTCGTTCCGTATGTGGTCGGAGTCACCTAGTGCAG	8400 fluorescence intensity (a.u.)
AAATTTTTTGGTGATTTGGTCTATTATATTATATATACTTCGGAGTCACCTAGTGCAG	8030 fluorescence intensity (a.u.)
ACAATCGCTTATACTCGACACACACACATTTCAAGATTCCCGGAGTCACCTAGTGCAG	10000 fluorescence intensity (a.u.)
TCTGTTCAGTTGTAATTGGCAACTTTACTCGTCTTATTGCCGGAGTCACCTAGTGCAG	8960 fluorescence intensity (a.u.)
GTGGGCTGGGCTTCTTCTTCGTCGTCTCATACCAATCGTGCGGAGTCACCTAGTGCAG	17100 fluorescence intensity (a.u.)
GGTTGGAATATTCTAGTTGCATGGCGTCATTTCAGAATGTCGGAGTCACCTAGTGCAG	9580 fluorescence intensity (a.u.)
TGCTCCTATAAATCCCAGCACCATGACCAAACCCATCACACGGAGTCACCTAGTGCAG	8900 fluorescence intensity (a.u.)
GTCCATTTTTCCTTTGCTTTTCTTTCAGGATCCTCTCTGACGGAGTCACCTAGTGCAG	8740 fluorescence intensity (a.u.)
ATAGATGTAATCCCTACCGTCCATCTGTAGATCGCTGATCCGGAGTCACCTAGTGCAG	8800 fluorescence intensity (a.u.)
TTCGTTGTTGGTGGTGGTGGCGGGCGGAAGATGCGGTTGCCGGAGTCACCTAGTGCAG	10000 fluorescence intensity (a.u.)

Sequence	binding signal
AACATATATTTATTGCATTCATCTAGACTTTGGAGCTAGTCGGAGTCACCTAGTGCAG	8600 fluorescence intensity (a.u.)
ACTCATTGGTTGCATACTTGCATTCACTCCTTGATTTTGTCGGAGTCACCTAGTGCAG	8810 fluorescence intensity (a.u.)
TGCCTTCAAATCTATCATGTCTTCTTTCTTTGACCTTTTACGGAGTCACCTAGTGCAG	9620 fluorescence intensity (a.u.)
CACCGCAATCCGGCCGCCCAATGGCGCGCCGCCACGTCACCGGAGTCACCTAGTGCAG	8650 fluorescence intensity (a.u.)
GTGTTTATCTCTCTCCTCCGCCTCGCTTCTCGCGTCCATCCGGAGTCACCTAGTGCAG	13500 fluorescence intensity (a.u.)
CCACTACAGTGAACCTTCTACTTGACTACTTTTATACATGCGGAGTCACCTAGTGCAG	9280 fluorescence intensity (a.u.)
CACCCTACGACTTTGACCGCGCGGCGCCACGGCGACTATTCGGAGTCACCTAGTGCAG	10100 fluorescence intensity (a.u.)
CATCACTCTGTGCTAGCTTTTCTCGTCTCATCTGGATTGGCGGAGTCACCTAGTGCAG	9720 fluorescence intensity (a.u.)
CACATCAAAGCTTTCCTACACGCAAAATTTTAACTTTTCTCGGAGTCACCTAGTGCAG	10500 fluorescence intensity (a.u.)
CCCGCCAGCCATCCCGCTGCCGTGCCGTCTCCATCTTCTACGGAGTCACCTAGTGCAG	8040 fluorescence intensity (a.u.)
TTCTGTACGTGGAAGCCCACTAATCTTGTCGTTAAGTAAGCGGAGTCACCTAGTGCAG	8040 fluorescence intensity (a.u.)
TCTCCTCTTTTTTTTTTCTTTGTTTGACCAAAAATTGGTACGGAGTCACCTAGTGCAG	11100 fluorescence intensity (a.u.)
ATCCCATCGCATTCGCCATTTCGCCTCCACTGTGGCGGAACGGAGTCACCTAGTGCAG	8350 fluorescence intensity (a.u.)
TGCACAGGGGTTAGTGGGCTTGTATTTCTAAAGCTGTCTTCGGAGTCACCTAGTGCAG	8250 fluorescence intensity (a.u.)
TCTCTAGCTAGCTTGCACATTCTTCATTCTTCTTGCAATCCGGAGTCACCTAGTGCAG	12100 fluorescence intensity (a.u.)
CCTTACGTGGTACTGTACTATATATCTAGACATACATTATCGGAGTCACCTAGTGCAG	10600 fluorescence intensity (a.u.)
GTGTCCTCATTAACTCCAGTTCGTTCCGGTCCATGTCTCGCGGAGTCACCTAGTGCAG	12100 fluorescence intensity (a.u.)
TGCTTTAATTTATTTACCTTACATTTTGCTACTCACATAACGGAGTCACCTAGTGCAG	9340 fluorescence intensity (a.u.)
TGGTGGGTGATTTGCAGGGGCGGTGAATCGGTGATCGATGCGGAGTCACCTAGTGCAG	9270 fluorescence intensity (a.u.)
ATAGAAAGGACTTCACTGCCCCTGCCATGCCAACCGCAGCCGGAGTCACCTAGTGCAG	8330 fluorescence intensity (a.u.)
GCAAGTTTTAGCCTGATTTCCTCTGCTACCTTTCGGCAACCGGAGTCACCTAGTGCAG	9170 fluorescence intensity (a.u.)

Sequence	binding signal
AACCAACACTGACATCATGTTCATTCACTGTGAGGAGAGGCGGAGTCACCTAGTGCAG	8210 fluorescence intensity (a.u.)
TTGGTTGTGTTACCCGCTGCCGCAGCTTTTCCAGCCGAACCGGAGTCACCTAGTGCAG	8580 fluorescence intensity (a.u.)
CCTATTCGTTTGTTCCCAGTTTTTAACAGATTGTTCCTCTCGGAGTCACCTAGTGCAG	8590 fluorescence intensity (a.u.)
TTATATGGATTCTTCTTTCAATATGCTTATTTTTAATTCCCGGAGTCACCTAGTGCAG	9000 fluorescence intensity (a.u.)
CCGGGTGGGGTCAGCATCTGTCAGACGGTCCCACGAGTTCCGGAGTCACCTAGTGCAG	8630 fluorescence intensity (a.u.)
AGGGGTGAAAGGTTTTGGCGTGTCACATTGGATATACGGGCGGAGTCACCTAGTGCAG	9280 fluorescence intensity (a.u.)
ATCCCGATTTTTCTTTCTTTTTTTTCTCTGCCTCTGCGAGCGGAGTCACCTAGTGCAG	9810 fluorescence intensity (a.u.)
TTCTCGACCTCCCGTACTCGTTTCCTTGTCGCCTCTTCTTCGGAGTCACCTAGTGCAG	15200 fluorescence intensity (a.u.)
CTCTACACTCTAGCAATTCAACAATTATTTTCCTTTGTTTCGGAGTCACCTAGTGCAG	8390 fluorescence intensity (a.u.)
TTTTGTGTTATTCCCTGTTTTCTTCACATGCTATTTTGTGCGGAGTCACCTAGTGCAG	12800 fluorescence intensity (a.u.)
GAGGTCCCGTCGCTCCGGCGAGCTCCCGCCATCCGCCTCGCGGAGTCACCTAGTGCAG	8630 fluorescence intensity (a.u.)
GGCCACTCGTATAAATTAGCTGCGCTCTCCTCCCTTTTCCCGGAGTCACCTAGTGCAG	9850 fluorescence intensity (a.u.)
CACACCTCGCCGCTCTTCCCGGCCTCCACCCGCCGCCCTTCGGAGTCACCTAGTGCAG	8510 fluorescence intensity (a.u.)
GTTACTAATTAAGTTGCATCATTGTCCATGGTTGTACATCCGGAGTCACCTAGTGCAG	9100 fluorescence intensity (a.u.)
CATTAGTCTATTGCGTGTGTACAGCCCACAAGCTAACCCTCGGAGTCACCTAGTGCAG	9440 fluorescence intensity (a.u.)
AATAGATGACGCTGTTGACTTTTTGTCATATTTTTGACCACGGAGTCACCTAGTGCAG	14100 fluorescence intensity (a.u.)
TGTCAAAAGTTGCAGGGGCAATGGCGTGGAGGGAGGGTACCGGAGTCACCTAGTGCAG	8160 fluorescence intensity (a.u.)
TGAGGTTTTGGGTTCTTGGGCACTTCTTGTTCTAGCCAAGCGGAGTCACCTAGTGCAG	9900 fluorescence intensity (a.u.)
ATGACAAGTTGAGGGACCTTCGGTGTACTTTTTCCTTTCCCGGAGTCACCTAGTGCAG	9790 fluorescence intensity (a.u.)
GCCGTGTTTAGTTTCAAAGTTTTTCTTCAAACTTCCAACTCGGAGTCACCTAGTGCAG	8680 fluorescence intensity (a.u.)
GTTTGTTAGTCTTCTCATTTGGACCTATAATTACGACTGTCGGAGTCACCTAGTGCAG	8930 fluorescence intensity (a.u.)

As a working copy, some entries already given:
Sequence	binding signal
AGGGGTGAAAGGTTTTGGCGTGTCACATTGGATATACGGGCGGAGTCACCTAGTGCAG	9280 fluorescence intensity (a.u.)
ATCCCGATTTTTCTTTCTTTTTTTTCTCTGCCTCTGCGAGCGGAGTCACCTAGTGCAG	9810 fluorescence intensity (a.u.)
TTCTCGACCTCCCGTACTCGTTTCCTTGTCGCCTCTTCTTCGGAGTCACCTAGTGCAG	15200 fluorescence intensity (a.u.)
CTCTACACTCTAGCAATTCAACAATTATTTTCCTTTGTTTCGGAGTCACCTAGTGCAG	8390 fluorescence intensity (a.u.)
TTTTGTGTTATTCCCTGTTTTCTTCACATGCTATTTTGTGCGGAGTCACCTAGTGCAG	12800 fluorescence intensity (a.u.)
GAGGTCCCGTCGCTCCGGCGAGCTCCCGCCATCCGCCTCGCGGAGTCACCTAGTGCAG	8630 fluorescence intensity (a.u.)
GGCCACTCGTATAAATTAGCTGCGCTCTCCTCCCTTTTCCCGGAGTCACCTAGTGCAG	9850 fluorescence intensity (a.u.)
CACACCTCGCCGCTCTTCCCGGCCTCCACCCGCCGCCCTTCGGAGTCACCTAGTGCAG	8510 fluorescence intensity (a.u.)
GTTACTAATTAAGTTGCATCATTGTCCATGGTTGTACATCCGGAGTCACCTAGTGCAG	9100 fluorescence intensity (a.u.)
CATTAGTCTATTGCGTGTGTACAGCCCACAAGCTAACCCTCGGAGTCACCTAGTGCAG	9440 fluorescence intensity (a.u.)
AATAGATGACGCTGTTGACTTTTTGTCATATTTTTGACCACGGAGTCACCTAGTGCAG	14100 fluorescence intensity (a.u.)
TGTCAAAAGTTGCAGGGGCAATGGCGTGGAGGGAGGGTACCGGAGTCACCTAGTGCAG	8160 fluorescence intensity (a.u.)
TGAGGTTTTGGGTTCTTGGGCACTTCTTGTTCTAGCCAAGCGGAGTCACCTAGTGCAG	9900 fluorescence intensity (a.u.)
ATGACAAGTTGAGGGACCTTCGGTGTACTTTTTCCTTTCCCGGAGTCACCTAGTGCAG	9790 fluorescence intensity (a.u.)
